Reference: publication PMC7483518, “Destabilizing single chain major histocompatibility complex class I protein for repurposed enterokinase proteolysis” (Scientific Reports, 2020)

System: HLA-A*11:01 single chain protein
Format: biochemical, Human
Parameters: EZ50kDa rank out of 177: unit not given beside the values
Settings: for EZ50kDa rank out of 177: Table 3, rank among 177 EGFR peptides
[1] = rank of the peptide by EZ50kD score in the library (1 = highest)
[2] = rank of the peptide in the library by EZ50kD score

Sequence	EZ50kDa rank out of 177	EZ_Ranking [1]	EZ_Ranking [2]
AIKTSPKANK [EX1012, EGFR exon 19 deletion-derived peptide]	20	20	
GRAKLLGA [LR1007]			100
GRAKLLGAEE [LR1026]		60	
GSLLDYVREHK [CS1037]	5	5	
IKTSPKANKE [EX1013]		50	
IMQLMPFGCL [TM1026]			90
KITDFGRAKLLG [LR1044]	7	7	
KTSPKANKE [EX1008]		30	
LMPFGSLLDY [CS1022]	80	80	
MQLMPFGCLLDY [TM1050]	8	8	
QLMPFGSLLDY [CS1032]	1	1	
RAKLLGAE [LR1008]		70	
SLLDYVREH [CS1017]	4	4	
SLLDYVREHK [CS1027]	3	3	
TSPKANKEI [EX1009]		40	
VAIKTSPKANK [EX1018, EGFR exon 19 deletion-derived peptide]	6	6	

Like-named read-outs stand apart in the source and are kept apart here.
